Test results from paper doi:10.1101/2021.12.06.470227.
Results are given in words; binding and its absence hold for the method and conditions named. Binding seen in cells or lysates may run through a third protein. Some results given as binding are weak or reduced against the parent protein; the word gives no strength. Where a sequence is shown, tags or fusion partners need not be part of it.

Target: Pin1 (peptidyl prolyl cis/trans isomerase) (human (endogenous in HEK293)), Q13526
Assay: co-IP
Details: remark: other sources report otherwise

B1: FLAG-full length KHSRP (K-homology splicing regulatory protein), Q92945 1-711 (protein)
chain: MSDYSTGGPPPGPPPPAGGGGGAGGAGGGPPPGPPGAGDRGGGGPGGGGPGGGSAGGPSQPPGGGGPGIRKDAFADAVQRARQIAAKIGGDAATTVNNSTPDFGFGGQKRQLEDGDQPESKKLASQGDSISSQLGPIHPPPRTSMTEEYRVPDGMVGLIIGRGGEQINKIQQDSGCKVQISPDSGGLPERSVSLTGAPESVQKAKMMLDDIVSRGRGGPPGQFHDNANGGQNGTVQEIMIPAGKAGLVIGKGGETIKQLQERAGVKMILIQDGSQNTNVDKPLRIIGDPYKVQQACEMVMDILRERDQGGFGDRNEYGSRIGGGIDVPVPRHSVGVVIGRSGEMIKKIQNDAGVRIQFKQDDGTGPEKIAHIMGPPDRCEHAARIINDLLQSLRSGPPGPPGGPGMPPGGRGRGRGQGNWGPPGGEMTFSIPTHKCGLVIGRGGENVKAINQQTGAFVEISRQLPPNGDPNFKLFIIRGSPQQIDHAKQLIEEKIEGPLCPVGPGPGGPGPAGPMGPFNPGPFNQGPPGAPPHAGGPPPHQYPPQGWGNTYPQWQPPAPHDPSKAAAAAADPNAAWAAYYSHYYQQPPGPVPGPAPAPAAPPAQGEPPQPPPTGQSDYTKAWEEYYKKIGQQPQQPGAPPQQDYTKAWEEYYKKQAQVATGGGPGAPPGSQPDYSAAWAEYYRQQAAYYGQTPGPGGPQPPPTQQGQQQAQ
B1 was tested, and the binding was “binds”.
